We go through one substance from article PMC8599861, “Structures of prokaryotic ubiquitin-like protein Pup in complex with depupylase Dop reveal the mechanism of catalytic phosphate formation” (Nature Communications, 2021).

The target of the assay is T1, Prokaryotic ubiquitin-like protein Pup from Corynebacterium glutamicum with C-terminal glutamate (Corynebacterium glutamicum) (UniProt Q8NQE0).
T1 sequence: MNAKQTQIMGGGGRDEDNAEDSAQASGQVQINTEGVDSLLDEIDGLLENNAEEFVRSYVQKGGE
In words: ITC; 25 °C, MicroCal iTC200; 150 µM CgluDop or 200 µM CgluDopGS injected into 15 or 20 µM CgluPupE in the cell; 50 mM Tris-HCl pH 8.0, 300 mM NaCl, 20 mM MgCl2; 1:1 binding model; both purified.

Results are given in words; binding and its absence hold for the method and conditions named. Binding calls can cover weak binding; strength is not graded here.

In the case of “Depupylase Dop from Corynebacterium glutamicum, wild type (enzyme)”, the binding result is “binds”.
